Construct, isoform or probe ends are uncertain for at least one entry. No signal at the amounts used counts as a negative.
Tested on: Elg1-RFC (Elg1, Rfc2, Rfc3, Rfc4, Rfc5) + PCNA (cryo-EM sample)
Test: cryo-EM
Settings: 0.5 mM ATPgS, 6.7 mM Mg-acetate, glutaraldehyde used to stabilise Elg1-RFC-PCNA, no DNA density; Loading/gel filtration: 20 mM Tris-HCl pH 7.5, 0.5 mM EDTA, 0.1 mg/ml BSA, 4% glycerol, 8 mM MgCl2, 2 mM DTT, 50 mM NaCl (100 mM in column), 2 mM ATP; recombinant protein; protein details: 3xFLAG on Elg1

GCCTAGCTCGACGCCATTAATAATGTTTTC / GAAAACATTATTAATGGCGTCGAGCTAGGCACAAGGCGAACTGCTAACGG [30-nt primer/50-nt template tailed DNA]
binding result: no binding
